# Assay results taken from the supplement of paper PMC11732987, “Enantioselective OTUD7B fragment discovery through chemoproteomics screening and high-throughput optimisation” (Communications Chemistry, 2025).
# The chains behind the UniProt entries cited, without tags or fusion partners. Where a name states a change or a piece, a line headed by the entry shows the natural chain unless it says otherwise. Residues count along the entry.
# UniProt Q93008, whole entry, looked up: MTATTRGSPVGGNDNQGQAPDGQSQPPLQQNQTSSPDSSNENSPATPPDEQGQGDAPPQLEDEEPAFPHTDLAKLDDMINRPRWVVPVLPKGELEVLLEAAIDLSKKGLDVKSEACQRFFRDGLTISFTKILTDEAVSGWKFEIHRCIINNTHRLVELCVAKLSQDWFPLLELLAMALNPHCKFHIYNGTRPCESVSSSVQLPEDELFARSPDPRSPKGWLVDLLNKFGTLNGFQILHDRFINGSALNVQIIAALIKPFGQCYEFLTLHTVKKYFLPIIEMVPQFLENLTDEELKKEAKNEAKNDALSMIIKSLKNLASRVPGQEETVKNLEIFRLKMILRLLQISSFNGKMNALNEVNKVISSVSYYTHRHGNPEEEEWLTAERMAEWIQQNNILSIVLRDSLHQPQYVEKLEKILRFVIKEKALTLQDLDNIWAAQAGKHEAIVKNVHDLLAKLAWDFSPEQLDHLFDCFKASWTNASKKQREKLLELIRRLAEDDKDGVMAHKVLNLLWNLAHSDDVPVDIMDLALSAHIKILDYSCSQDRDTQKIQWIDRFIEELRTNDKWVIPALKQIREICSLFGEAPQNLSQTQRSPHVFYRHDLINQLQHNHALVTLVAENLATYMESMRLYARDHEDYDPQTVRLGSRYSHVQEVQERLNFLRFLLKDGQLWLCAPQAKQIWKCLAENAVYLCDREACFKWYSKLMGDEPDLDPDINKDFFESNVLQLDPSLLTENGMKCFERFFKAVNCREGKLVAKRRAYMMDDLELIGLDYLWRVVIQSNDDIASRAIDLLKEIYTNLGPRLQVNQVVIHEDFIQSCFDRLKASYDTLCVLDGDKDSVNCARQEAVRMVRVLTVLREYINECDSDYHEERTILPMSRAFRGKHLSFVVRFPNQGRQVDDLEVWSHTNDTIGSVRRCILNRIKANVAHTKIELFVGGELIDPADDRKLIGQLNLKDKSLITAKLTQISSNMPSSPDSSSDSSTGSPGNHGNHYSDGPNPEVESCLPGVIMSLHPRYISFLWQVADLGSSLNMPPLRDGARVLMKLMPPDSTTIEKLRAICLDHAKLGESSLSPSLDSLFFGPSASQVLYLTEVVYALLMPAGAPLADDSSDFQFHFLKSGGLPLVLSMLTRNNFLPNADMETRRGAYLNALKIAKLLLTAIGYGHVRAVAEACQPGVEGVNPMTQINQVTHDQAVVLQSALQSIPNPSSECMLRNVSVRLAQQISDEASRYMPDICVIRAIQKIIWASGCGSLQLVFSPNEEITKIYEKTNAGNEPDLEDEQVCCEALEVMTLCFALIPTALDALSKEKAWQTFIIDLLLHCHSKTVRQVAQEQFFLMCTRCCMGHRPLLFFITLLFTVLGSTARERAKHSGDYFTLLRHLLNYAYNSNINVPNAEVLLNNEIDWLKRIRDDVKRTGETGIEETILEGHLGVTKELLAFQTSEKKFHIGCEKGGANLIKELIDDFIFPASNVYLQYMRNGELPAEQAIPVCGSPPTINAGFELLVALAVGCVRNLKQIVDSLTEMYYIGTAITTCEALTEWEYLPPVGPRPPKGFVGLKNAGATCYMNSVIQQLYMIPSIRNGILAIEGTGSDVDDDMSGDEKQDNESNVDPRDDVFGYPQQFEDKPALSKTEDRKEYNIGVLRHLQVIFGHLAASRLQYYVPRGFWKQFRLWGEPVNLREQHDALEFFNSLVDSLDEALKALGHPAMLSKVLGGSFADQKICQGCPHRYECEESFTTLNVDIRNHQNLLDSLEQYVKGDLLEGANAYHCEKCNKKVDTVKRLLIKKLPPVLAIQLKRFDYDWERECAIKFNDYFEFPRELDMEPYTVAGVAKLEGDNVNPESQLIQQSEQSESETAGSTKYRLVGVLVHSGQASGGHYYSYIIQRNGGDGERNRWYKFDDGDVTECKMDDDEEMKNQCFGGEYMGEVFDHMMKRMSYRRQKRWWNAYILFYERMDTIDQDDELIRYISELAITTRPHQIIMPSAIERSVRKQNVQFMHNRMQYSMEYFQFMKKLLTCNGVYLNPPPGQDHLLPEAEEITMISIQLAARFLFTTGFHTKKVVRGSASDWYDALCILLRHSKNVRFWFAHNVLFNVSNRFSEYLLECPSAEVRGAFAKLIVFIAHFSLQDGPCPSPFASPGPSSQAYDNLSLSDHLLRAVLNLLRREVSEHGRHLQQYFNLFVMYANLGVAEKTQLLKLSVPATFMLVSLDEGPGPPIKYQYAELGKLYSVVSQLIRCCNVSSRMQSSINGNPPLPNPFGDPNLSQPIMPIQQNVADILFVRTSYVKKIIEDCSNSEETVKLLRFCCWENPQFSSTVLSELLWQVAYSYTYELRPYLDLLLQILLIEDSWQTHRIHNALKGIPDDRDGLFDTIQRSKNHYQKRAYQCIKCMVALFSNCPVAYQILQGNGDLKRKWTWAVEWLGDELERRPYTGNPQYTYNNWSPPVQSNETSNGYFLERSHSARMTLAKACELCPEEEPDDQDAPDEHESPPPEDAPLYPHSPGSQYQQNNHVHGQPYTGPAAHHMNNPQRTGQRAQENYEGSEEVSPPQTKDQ
# UniProt O95071, 605-632: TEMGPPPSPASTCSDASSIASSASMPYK
# UniProt Q9Y277: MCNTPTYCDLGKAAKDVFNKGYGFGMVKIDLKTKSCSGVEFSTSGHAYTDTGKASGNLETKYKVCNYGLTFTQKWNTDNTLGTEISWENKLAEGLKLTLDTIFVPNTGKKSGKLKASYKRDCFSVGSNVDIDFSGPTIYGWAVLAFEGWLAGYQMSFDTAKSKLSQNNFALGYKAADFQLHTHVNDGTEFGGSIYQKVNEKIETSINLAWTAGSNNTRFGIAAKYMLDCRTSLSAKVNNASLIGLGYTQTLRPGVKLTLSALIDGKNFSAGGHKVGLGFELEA
# UniProt P07919: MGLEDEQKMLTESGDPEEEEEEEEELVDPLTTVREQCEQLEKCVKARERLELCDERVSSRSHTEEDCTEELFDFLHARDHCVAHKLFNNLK
# UniProt O75691: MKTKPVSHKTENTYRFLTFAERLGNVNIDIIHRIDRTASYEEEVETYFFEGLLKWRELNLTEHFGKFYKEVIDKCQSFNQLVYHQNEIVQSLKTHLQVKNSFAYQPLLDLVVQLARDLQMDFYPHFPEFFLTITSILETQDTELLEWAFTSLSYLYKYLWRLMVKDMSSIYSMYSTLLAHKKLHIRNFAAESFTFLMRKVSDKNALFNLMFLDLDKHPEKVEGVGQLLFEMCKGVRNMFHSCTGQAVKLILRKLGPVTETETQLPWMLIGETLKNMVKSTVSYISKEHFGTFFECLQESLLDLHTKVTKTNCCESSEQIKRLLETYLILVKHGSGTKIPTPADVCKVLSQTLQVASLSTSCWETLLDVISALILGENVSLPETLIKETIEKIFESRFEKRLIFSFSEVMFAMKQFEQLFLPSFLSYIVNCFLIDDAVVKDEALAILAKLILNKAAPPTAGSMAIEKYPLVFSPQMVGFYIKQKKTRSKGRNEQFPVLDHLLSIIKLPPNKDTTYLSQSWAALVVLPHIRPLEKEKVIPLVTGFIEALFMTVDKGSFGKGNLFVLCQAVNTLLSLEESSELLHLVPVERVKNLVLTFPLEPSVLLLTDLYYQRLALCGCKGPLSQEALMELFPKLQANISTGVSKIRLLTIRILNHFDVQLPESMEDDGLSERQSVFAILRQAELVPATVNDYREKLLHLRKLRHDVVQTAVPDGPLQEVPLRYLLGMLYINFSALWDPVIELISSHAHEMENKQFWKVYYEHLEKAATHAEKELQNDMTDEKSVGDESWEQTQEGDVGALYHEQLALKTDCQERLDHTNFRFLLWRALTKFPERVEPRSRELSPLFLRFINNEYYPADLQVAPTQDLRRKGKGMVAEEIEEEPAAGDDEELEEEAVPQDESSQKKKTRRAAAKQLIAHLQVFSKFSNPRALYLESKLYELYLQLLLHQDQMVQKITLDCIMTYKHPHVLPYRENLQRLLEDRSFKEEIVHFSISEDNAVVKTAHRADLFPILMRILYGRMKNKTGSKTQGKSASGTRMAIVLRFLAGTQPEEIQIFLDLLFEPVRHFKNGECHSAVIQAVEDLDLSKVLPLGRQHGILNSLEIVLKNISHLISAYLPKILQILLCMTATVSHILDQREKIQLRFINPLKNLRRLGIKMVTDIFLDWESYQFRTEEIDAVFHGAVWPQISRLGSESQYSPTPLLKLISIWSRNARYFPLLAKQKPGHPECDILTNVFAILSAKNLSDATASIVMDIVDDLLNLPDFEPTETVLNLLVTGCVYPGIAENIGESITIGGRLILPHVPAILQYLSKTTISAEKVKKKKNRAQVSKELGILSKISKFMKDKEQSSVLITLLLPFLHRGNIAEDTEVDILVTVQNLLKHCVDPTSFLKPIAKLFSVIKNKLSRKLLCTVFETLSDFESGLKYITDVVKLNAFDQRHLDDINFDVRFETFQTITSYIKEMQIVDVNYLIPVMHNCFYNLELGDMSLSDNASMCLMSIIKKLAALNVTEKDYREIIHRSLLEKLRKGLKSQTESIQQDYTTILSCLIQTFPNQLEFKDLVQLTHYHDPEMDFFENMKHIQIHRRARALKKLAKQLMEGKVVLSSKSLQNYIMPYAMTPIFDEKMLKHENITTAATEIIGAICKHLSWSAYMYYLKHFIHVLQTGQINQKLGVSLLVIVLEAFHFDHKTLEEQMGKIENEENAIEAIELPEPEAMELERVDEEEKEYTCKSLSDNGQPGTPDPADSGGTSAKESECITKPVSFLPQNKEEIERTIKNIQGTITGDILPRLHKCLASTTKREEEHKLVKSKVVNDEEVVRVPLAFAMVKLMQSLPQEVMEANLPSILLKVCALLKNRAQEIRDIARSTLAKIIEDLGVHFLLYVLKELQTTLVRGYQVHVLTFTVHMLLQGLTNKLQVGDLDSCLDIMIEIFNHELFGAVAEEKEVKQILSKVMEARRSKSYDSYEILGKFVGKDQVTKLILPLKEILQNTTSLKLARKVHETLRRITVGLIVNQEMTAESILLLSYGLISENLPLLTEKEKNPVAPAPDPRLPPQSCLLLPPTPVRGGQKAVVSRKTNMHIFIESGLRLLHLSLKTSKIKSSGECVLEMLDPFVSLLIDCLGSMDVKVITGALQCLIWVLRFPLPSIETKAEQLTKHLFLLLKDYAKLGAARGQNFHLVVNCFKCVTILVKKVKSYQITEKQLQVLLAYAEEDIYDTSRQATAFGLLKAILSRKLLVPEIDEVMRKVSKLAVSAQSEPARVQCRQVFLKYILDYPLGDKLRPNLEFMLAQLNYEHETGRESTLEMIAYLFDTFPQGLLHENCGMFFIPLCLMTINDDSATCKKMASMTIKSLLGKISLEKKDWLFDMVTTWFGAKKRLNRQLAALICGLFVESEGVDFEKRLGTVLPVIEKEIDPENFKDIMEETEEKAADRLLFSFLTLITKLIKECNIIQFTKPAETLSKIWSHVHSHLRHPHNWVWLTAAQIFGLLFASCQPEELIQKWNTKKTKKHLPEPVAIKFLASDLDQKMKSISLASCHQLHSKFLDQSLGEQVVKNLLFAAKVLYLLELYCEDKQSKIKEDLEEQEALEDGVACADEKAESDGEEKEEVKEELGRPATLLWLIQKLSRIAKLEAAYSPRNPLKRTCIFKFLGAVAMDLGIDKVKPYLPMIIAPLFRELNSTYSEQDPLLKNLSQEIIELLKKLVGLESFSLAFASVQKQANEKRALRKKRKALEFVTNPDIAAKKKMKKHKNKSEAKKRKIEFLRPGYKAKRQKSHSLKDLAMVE
# UniProt Q16831, 139-164: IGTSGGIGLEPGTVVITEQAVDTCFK
# UniProt Q9Y5T5: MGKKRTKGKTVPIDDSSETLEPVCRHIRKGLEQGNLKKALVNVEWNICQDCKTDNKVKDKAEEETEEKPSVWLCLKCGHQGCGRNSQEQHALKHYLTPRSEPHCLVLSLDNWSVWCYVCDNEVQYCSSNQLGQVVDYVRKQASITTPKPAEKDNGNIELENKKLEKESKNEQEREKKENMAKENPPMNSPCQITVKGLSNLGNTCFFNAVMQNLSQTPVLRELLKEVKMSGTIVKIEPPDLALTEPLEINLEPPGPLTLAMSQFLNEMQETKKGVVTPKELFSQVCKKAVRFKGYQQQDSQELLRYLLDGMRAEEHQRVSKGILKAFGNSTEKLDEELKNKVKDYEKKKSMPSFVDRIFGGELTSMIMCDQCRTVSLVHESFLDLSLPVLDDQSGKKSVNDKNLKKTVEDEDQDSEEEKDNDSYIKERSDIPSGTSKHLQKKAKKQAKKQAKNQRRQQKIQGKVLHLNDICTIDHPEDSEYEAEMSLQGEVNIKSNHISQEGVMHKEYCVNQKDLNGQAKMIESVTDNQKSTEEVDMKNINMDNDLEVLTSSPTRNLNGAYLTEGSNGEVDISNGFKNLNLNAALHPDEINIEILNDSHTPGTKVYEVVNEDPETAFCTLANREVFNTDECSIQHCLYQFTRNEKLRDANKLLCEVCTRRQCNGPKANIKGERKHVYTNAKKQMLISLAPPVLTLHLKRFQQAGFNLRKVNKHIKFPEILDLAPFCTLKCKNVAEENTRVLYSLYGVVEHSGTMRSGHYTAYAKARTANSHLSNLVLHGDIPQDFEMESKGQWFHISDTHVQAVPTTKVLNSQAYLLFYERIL
# The list shows a part of the results. The data scatter; read single values as rough.
# Compound: ClCC(=O)N[C@H]1CCCc2ccccc12
# Assay: log2 mean competition ratio of IA-DTB cysteine labelling (DMSO/compound) (log2 ratio); higher = stronger cysteine engagement by compound
# Conditions: 50 µM; treatment time: 4 h; cell line lysate: HEK293T
# Description: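 IA-DTB competitive cysteine chemoproteomics in HEK293T RIPA lysate. Lysates were treated with compound 29 or 30 at 50 or 200 µM for 4 h, then IA-DTB (500 µM, 1 h), trypsin-digested, NeutrAvidin-enriched and analysed by diaPASEF. Competition ratio = intensity DMSO / intensity compound (n=4 treated, n=64 DMSO); binding: mean log2 CR ≥ 1 and p ≤ 0.05 plus QC filters. Target is the cysteine site.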
row,Target,log2 mean competition ratio
1,UNC13B C655 (UniProt O14795),0.18
2,UFSP2 C302 (UniProt Q9NUQ7),0.0787
3,USP34 C1330 (UniProt Q70CQ2),-0.209
4,UCKL1 C35 (UniProt Q9NWZ5),-0.124
5,USP9X C1237 (UniProt Q93008),-0.248
6,USP47 C856 (UniProt Q96K76),-0.0849
7,UBR5 C617 (UniProt O95071),-0.372
8,UNC45A C927 (UniProt Q9H3U1),-0.0375
9,USP9X C1908 (UniProt Q93008),-0.226
10,VAV3 C187 (UniProt Q9UKW4),-0.117
11,USO1 C303 (UniProt O60763),0.0538
12,VDAC3 C36 (UniProt Q9Y277),-0.358
13,UQCRH C37 (UniProt P07919),0.251
14,VCP C522 (UniProt P55072),0.654
15,USP3 C362 (UniProt Q9Y6I4),0.278
16,UHRF1 C305 (UniProt Q96T88),-0.167
17,URB2 C702 (UniProt Q14146),-0.131
18,USP9X C864 (UniProt Q93008),-0.294
19,USP8 C809 (UniProt P40818),-0.179

row,Target,log2 mean competition ratio
1,UTP20 C345 (UniProt O75691),-0.385
2,UNC45A C118 (UniProt Q9H3U1),0.469
3,UNC45B C207,0.405
4,URI1 C44 (UniProt O94763),-0.13
5,UPP1 C162 (UniProt Q16831),0.151
6,USP7 C334,-0.00435
7,USP16 C618 (UniProt Q9Y5T5),0.0848
8,UQCRH C53 (UniProt P07919),0.389
9,USP34 C1380 (UniProt Q70CQ2),-0.937
10,USP22 C494 (UniProt Q9UPT9),0.101
11,VPS11 C734 (UniProt Q9H270),-0.93
12,USP16 C24 (UniProt Q9Y5T5),0.252
13,USP5 C195,0.03
14,UTP20 C1794 (UniProt O75691),0.129
15,UTP15 C385 (UniProt Q8TED0),0.748
16,VAPB C173 (UniProt O95292),-0.0882
17,ULK3 C308 (UniProt Q6PHR2),-0.0949
18,UTRN C862 (UniProt P46939),0.739

# Same assay, conditions: 200 µM; treatment time: 4 h; cell line lysate: HEK293T
row,Target,log2 mean competition ratio
1,UNC13B C655 (UniProt O14795),-0.209
2,UFSP2 C302 (UniProt Q9NUQ7),-0.204
3,USP34 C1330 (UniProt Q70CQ2),-0.408
4,UCKL1 C35 (UniProt Q9NWZ5),0.257
5,USP9X C1237 (UniProt Q93008),0.255
6,USP47 C856 (UniProt Q96K76),-0.124
7,UBR5 C617 (UniProt O95071),-0.12
8,UNC45A C927 (UniProt Q9H3U1),0.0249
9,USP9X C1908 (UniProt Q93008),0.553
10,VAV3 C187 (UniProt Q9UKW4),0.192
11,USO1 C303 (UniProt O60763),0.117
12,VDAC3 C36 (UniProt Q9Y277),-0.24
13,UQCRH C37 (UniProt P07919),0.389
14,VCP C522 (UniProt P55072),0.0275
15,USP3 C362 (UniProt Q9Y6I4),0.305
16,UHRF1 C305 (UniProt Q96T88),0.043
17,URB2 C702 (UniProt Q14146),0.0658
18,USP9X C864 (UniProt Q93008),-0.086
19,USP8 C809 (UniProt P40818),0.146

row,Target,log2 mean competition ratio
1,UTP20 C345 (UniProt O75691),-0.0223
2,UNC45A C118 (UniProt Q9H3U1),0.0857
3,UNC45B C207,-0.00582
4,URI1 C44 (UniProt O94763),-0.0235
5,UPP1 C162 (UniProt Q16831),-0.0676
6,USP7 C334,0.0743
7,USP16 C618 (UniProt Q9Y5T5),0.0919
8,UQCRH C53 (UniProt P07919),0.145
9,USP34 C1380 (UniProt Q70CQ2),0.187
10,USP22 C494 (UniProt Q9UPT9),0.405
11,VPS11 C734 (UniProt Q9H270),0.0284
12,USP16 C24 (UniProt Q9Y5T5),-0.0057
13,USP5 C195,0.11
14,UTP20 C1794 (UniProt O75691),-0.239
15,UTP15 C385 (UniProt Q8TED0),0.181
16,VAPB C173 (UniProt O95292),-0.133
17,ULK3 C308 (UniProt Q6PHR2),-0.181
18,UTRN C862 (UniProt P46939),-0.00712
